Residue numbers refer to the chain shown, from its start. No constants are given. Whether binding was seen depends on the method and setting. In cells and extracts the contact can be indirect. Some results given as binding are weak or reduced against the parent protein; the word gives no strength. Sequences can lack the tags named with a protein.
Experiments:
Test in all cases: co-IP; HEK293T co-transfected with the yeast Paf1C subunits (GFP-Ctr9 or GFP-Paf1 as bait, the others Myc-tagged); agarose-conjugated anti-GFP, blot with anti-Myc
[1] = target: T1, GFP-Paf1 (S. cerevisiae) (UniProt P38351)
T1 sequence: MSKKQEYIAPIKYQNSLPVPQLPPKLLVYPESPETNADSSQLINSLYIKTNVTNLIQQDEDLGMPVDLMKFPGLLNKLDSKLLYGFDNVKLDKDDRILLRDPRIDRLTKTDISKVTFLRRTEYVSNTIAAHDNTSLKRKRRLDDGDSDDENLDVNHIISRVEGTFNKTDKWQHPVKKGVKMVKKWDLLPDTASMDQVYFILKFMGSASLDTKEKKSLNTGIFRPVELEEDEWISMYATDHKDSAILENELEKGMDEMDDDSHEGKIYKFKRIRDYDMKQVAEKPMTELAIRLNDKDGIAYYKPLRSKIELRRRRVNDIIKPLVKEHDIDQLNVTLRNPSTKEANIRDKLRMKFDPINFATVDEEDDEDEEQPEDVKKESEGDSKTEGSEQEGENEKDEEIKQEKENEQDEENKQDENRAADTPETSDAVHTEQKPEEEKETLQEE

[2] = target: T2, GFP-Paf1(4S) (S. cerevisiae) (UniProt P38351)
T2 sequence: T1 sequence with L62S, M64S, V66S, L68S

[3] = target: T3, GFP-Paf1(D95K) (S. cerevisiae) (UniProt P38351)
T3 sequence: T1 sequence with D95K

[4] = target: T4, GFP-Paf1(L83S) (S. cerevisiae) (UniProt P38351)
T4 sequence: T1 sequence with L83S

Measured: binding

B1: Myc-Leo1 (protein, UniProt P38439 1-464)
chain: MSSESPQDQPQKEQISNNVGVTTNSTSNEETSRSQDDNVKEVNGNDDTKEEEQEEDAELDDLFGDDNDDDDDDDVKKSETEKSDSDSDEDDEGENINHRSRHRESLGLDDDEAEEQAMYTRKFYGEDANNFSDQDETTHTFKEENVELVRHIIPSKANVNETASHNEIFYARIPNFLTIDPIPFDPPSFEAKVNERASNSASREDQLDDRLIDENTVRWRYSRDKDQHVFKESNTQIVQWSDGTYSLKVGEECTDILVNDTSNTFLTVSHDQQELIQCYEGGEIKKTLMFIPTSTNSKIHQKLSKAVIRRNQRQSKGPGTYIVSMDPEVEKKELERKQSQILRDRRRRQLKEKEKQESPDAAFETGFRKQNSPTTYGASRRNEYEEDDFLVDDDEEEEAAFDDEEDDNEEEEEEEDADEENASRLRNLKREGAAMYREEEEEEKDRSETKRRRVAVIEDDEDED
binds: all assays above

From publication PMC6143631 (Nature Communications, 2018)
